Results are given in words; binding and its absence hold for the method and conditions named. Binding seen in cells or lysates may run through a third protein. A yes stands for co-enrichment or nearness to the bait. Other partners may have been found.
Target: LUC7A-YFP (LETHAL UNLESS CBC 7 A, AthLUC7A) (Arabidopsis thaliana)
Assay: affinity purification with mass spectrometry

Binder | binding
SCL30A (protein, UniProt Q9LHP2 1-262) MRGRSYTPSPPRGYGRRGRSPSPRGRFGGSRDSDLPTSLLVRNLRHDCRQEDLRRPFEQFGPVKDIYLPRDYYTGDPRGFGFIQFMDPADAAEAKHQMDGYLLLGRELTVVFAEENRKKPTEMRTRDRGGRSNRFQDRRRSPPRYSRSPPPRRGRRSRSRSRGYNSPPAKRHQSRSVSPQDRRYEKERSYSRSPPHNGSRVRSGSPGRVKSHSRSPRRSVSPRKNRSYTPEQARSQSPVPRQSRSPTPVPRGAQNGDRSPSQ | binds
U1-70K (protein, UniProt Q42404 1-427) MGDSGDPFLRNPNAAVQARAKVQNRANVLQLKLMGQSHPTGLTNNLLKLFEPRPPLEYKPPPEKRKCPPYTGMAQFVSNFAEPGDPEYAPPKPEVELPSQKRERIHKLRLEKGVEKAAEDLKKYDPNNDPNATGDPYKTLFVSRLNYESSESKIKREFESYGPIKRVHLVTDQLTNKPKGYAFIEYMHTRDMKAAYKQADGQKIDGRRVLVDVERGRTVPNWRPRRLGGGLGTSRVGGGEEIVGEQQPQGRTSQSEEPSRPREEREKSREKGKERERSRELSHEQPRERSRDRPREDKHHRDRDQGGRDRDRDSRRDRDRTRDRGDRDRRDRDRGRDRTSRDHDRDRSRKKERDYEGGEYEHEGGGRSRERDAEYRGEPEETRGYYEDDQGDTDRYSHRYDKMEEDDFRYEREYKRSKRSESREYVR | binds
ABH1/CBP80 (protein, UniProt Q9SIU2 1-848) MSNWKTLLLRIGEKGPEYGTSSDYKDHIETCFGVIRREIERSGDQVLPFLLQCAEQLPHKIPLYGTLIGLLNLENEDFVQKLVESVHANFQVALDSGNCNSIRILLRFMTSLLCSKVIQPASLIVVFETLLSSAATTVDEEKGNPSWQPQADFYVICILSSLPWGGSELAEQVPDEIERVLVGIQAYLSIRKNSSTSGLNFFHNGEFESSLAEKDFVEDLLDRIQSLASNGWKLESVPRPHLSFEAQLVAGKFHELRPIKCMEQPSPPSDHSRAYSGKQKHDALTRYPQRIRRLNIFPANKMEDVQPIDRFVVEEYLLDVLFYLNGCRKECASYMANLPVTFRYEYLMAETLFSQILLLPQPPFKTLYYTLVIMDLCKALPGAFPAVVAGAVRALFEKISDLDMESRTRLILWFSHHLSNFQFIWPWEEWAFVLDLPKWAPKRVFVQEILQREVRLSYWDKIKQSIENATALEELLPPKAGPNFMYSLEEGKEKTEEQQLSAELSRKVKEKQTARDMIVWIEETIYPVHGFEVTLTIVVQTLLDIGSKSFTHLVTVLERYGQVFSKLCPDNDKQVMLLSQVSTYWKNNVQMTAVAIDRMMGYRLVSNQAIVRWVFSPENVDQFHVSDQPWEILGNALNKTYNRISDLRKDISNITKNVLVAEKASANARVELEAAESKLSLVEGEPVLGENPAKMKRLKSTVEKTGEAELSLRESLEAKEALLNRALSETEVLLLLLFQSFLGVLKERLPDPTKVRSVQDLKSIGAEDDKPSAMDVDSENGNPKKSCEVGEREQWCLSTLGYLTAFTRQYASEIWPHMEKLESEVFSGEDVHPLFLQAISSALQFPLH | binds
SR30 (protein, UniProt Q9XFR5 1-268) MSSRWNRTIYVGNLPGDIRKCEVEDLFYKYGPIVDIDLKIPPRPPGYAFVEFEDPRDADDAIYGRDGYDFDGCRLRVEIAHGGRRFSPSVDRYSSSYSASRAPSRRSDYRVLVTGLPPSASWQDLKDHMRKAGDVCFSEVFPDRKGMSGVVDYSNYDDMKYAIRKLDATEFRNAFSSAYIRVREYESRSVSRSPDDSKSYRSRSRSRGPSCSYSSKSRSVSPARSISPRSRPLSRSRSLYSSVSRSQSRSKSRSRSRSNSPVSPVISG | binds
RBP47C (protein, UniProt Q9SX79 1-432) MADVKIQSESESSDSHPVVDNQPPPPPPPPQQPAKEEENQPKTSPTPPPHWMRYPPTVIIPHQMMYAPPPFPPYHQYPNHHHLHHQSRGNKHQNAFNGENKTIWVGDLHHWMDEAYLNSSFASGDEREIVSVKVIRNKNNGLSEGYGFVEFESHDVADKVLREFNGTTMPNTDQPFRLNWASFSTGEKRLENNGPDLSIFVGDLSPDVSDNLLHETFSEKYPSVKAAKVVLDANTGRSKGYGFVRFGDENERTKAMTEMNGVKCSSRAMRIGPATPRKTNGYQQQGGYMPNGTLTRPEGDIMNTTIFVGGLDSSVTDEDLKQPFNEFGEIVSVKIPVGKGCGFVQFVNRPNAEEALEKLNGTVIGKQTVRLSWGRNPANKQPRDKYGNQWVDPYYGGQFYNGYGYMVPQPDPRMYPAAPYYPMYGGHQQQVS | binds
SCL33 (protein, UniProt Q9SEU4 1-287) MRGRSYTPSPPRGYGRRGRSPSPRGRYGGRSRDLPTSLLVRNLRHDCRQEDLRKSFEQFGPVKDIYLPRDYYTGDPRGFGFVQFMDPADAADAKHHMDGYLLLGRELTVVFAEENRKKPTEMRARERGGGRFRDRRRTPPRYYSRSRSPPPRRGRSRSRSGDYYSPPPRRHHPRSISPREERYDGRRSYSRSPASDGSRGRSLTPVRGKSRSLSPSPRRSISRSPRRSRSPSPKRNRSVSPRRSISRSPRRSRSPRRSRRSYTPEPARSRSQSPHGGQYDEDRSPSQ | binds
SERRATE (SE) (protein, UniProt Q9ZVD0 1-720) MADVNLPPSDSVDNRLPEKSTSSSPPPPPPSSSLPQQEQEQDQQQLPLRRERDSRERRDERDIERPPPNRRERDRSPLPPPRRDYKRRPSLSPPPPYRDRRHSPPQRRSPPQKRYRRDDNGYDGRRGSPRGGYGPPDRRFGYDHGGGYDREMGGRPGYGDERPHGRFMGRYQDWEGGRGGYGDASNSGNPQRDGLMSYKQFIQELEDDILPSEAERRYQEYKSEYITTQKRAFFNTHKEEDWLKNKYHPTNLLSVIERRNDLAQKVAKDFLLDLQSGTLDLGPAVTALNKSGRTSEPNSEDEAAGVGKRKRHGMGGAKENELLSAAPKAPSFTSDPKRILTDVEQTQALVRKLDSEKKIEENVLQGSETEKSGREKLHSGSTGPVVIIRGLTSVKGLEGVELLDTLVTYLWRVHGLDYYGKVETNEAKGLRHVRAEGKVSDAKGDENESKFDSHWQERLKGQDPLEVMAAKEKIDAAATEALDPHVRKIRDEKYGWKYGCGAKGCTKLFHAAEFVYKHLKLKHTELVTELTTKVREELYFQNYMNDPNAPGGQPATQQSGPRDRPIRRKPSMENRLRDDRGGRRERDGRANGNDRNDRSEDQQRGDNDGGNPGEVGYDAFGGQGGVHVPPFLSDINPPPMLMPVPGAGPLGPFVPAPPEVAMQMFRDPSGPNPPFEGSGRGGPAPFLLSPAFRQDPRRLRSYQDLDAPEEEVTVIDYRSL | binds

Reference: doi:10.1101/150805
